For one molecule, binding results are on record in PMC9275676.

The chains behind the UniProt entries cited, without tags or fusion partners.
UniProt O15550: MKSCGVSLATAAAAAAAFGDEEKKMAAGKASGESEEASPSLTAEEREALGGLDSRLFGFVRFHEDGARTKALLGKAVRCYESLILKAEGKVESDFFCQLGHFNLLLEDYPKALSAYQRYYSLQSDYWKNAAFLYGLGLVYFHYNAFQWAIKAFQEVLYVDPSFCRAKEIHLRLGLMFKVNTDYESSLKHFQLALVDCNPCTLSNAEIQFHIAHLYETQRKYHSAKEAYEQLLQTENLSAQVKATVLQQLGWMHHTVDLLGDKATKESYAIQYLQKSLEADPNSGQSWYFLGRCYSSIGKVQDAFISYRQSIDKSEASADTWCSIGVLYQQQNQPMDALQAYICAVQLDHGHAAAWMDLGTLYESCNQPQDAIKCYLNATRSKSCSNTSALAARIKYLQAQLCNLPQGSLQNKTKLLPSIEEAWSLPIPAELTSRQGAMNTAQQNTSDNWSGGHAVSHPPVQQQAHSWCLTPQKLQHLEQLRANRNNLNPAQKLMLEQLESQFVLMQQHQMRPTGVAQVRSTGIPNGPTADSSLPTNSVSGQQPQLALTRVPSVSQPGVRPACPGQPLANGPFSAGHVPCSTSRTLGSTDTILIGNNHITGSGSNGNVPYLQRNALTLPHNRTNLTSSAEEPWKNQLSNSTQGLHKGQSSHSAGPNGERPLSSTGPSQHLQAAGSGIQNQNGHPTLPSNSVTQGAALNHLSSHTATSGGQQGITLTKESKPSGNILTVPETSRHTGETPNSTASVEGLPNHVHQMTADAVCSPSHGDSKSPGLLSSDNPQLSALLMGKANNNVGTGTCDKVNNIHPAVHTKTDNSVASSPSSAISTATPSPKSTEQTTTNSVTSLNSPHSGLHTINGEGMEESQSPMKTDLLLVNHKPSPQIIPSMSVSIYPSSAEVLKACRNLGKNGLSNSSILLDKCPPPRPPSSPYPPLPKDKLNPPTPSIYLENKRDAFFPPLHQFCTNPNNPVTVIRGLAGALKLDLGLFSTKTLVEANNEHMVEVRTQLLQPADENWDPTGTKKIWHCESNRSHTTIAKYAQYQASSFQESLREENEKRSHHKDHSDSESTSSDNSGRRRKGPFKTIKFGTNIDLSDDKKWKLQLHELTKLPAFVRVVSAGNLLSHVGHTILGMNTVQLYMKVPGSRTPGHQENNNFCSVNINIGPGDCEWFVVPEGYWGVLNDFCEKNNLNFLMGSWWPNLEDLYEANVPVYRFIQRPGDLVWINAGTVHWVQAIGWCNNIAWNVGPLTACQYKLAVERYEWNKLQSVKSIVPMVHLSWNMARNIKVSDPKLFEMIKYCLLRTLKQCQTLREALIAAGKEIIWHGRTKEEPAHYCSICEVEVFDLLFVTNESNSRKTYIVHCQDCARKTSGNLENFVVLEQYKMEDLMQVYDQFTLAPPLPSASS

These are yes or no findings as the source states them, for the method shown. In cells and extracts the contact can be indirect. These calls come from enrichment with a bait or labelling near it, and not all partners need be listed.

The test has as its target FLAG-UTX (tetracycline-inducible HEK293 line) (UniProt O15550). Nature of the test: affinity purification with mass spectrometry; FLAG-UTX IP from nuclear extracts of HEK293 cells, LC-MS/MS of gel bands; FLAG-tag expressing cells as control.

B1: ELMSAN1 (endogenous, human cells) (protein, UniProt Q6PJG2 1-1045)
chain: MNLQAQPKAQNKRKRCLFGGQEPAPKEQPPPLQPPQQSIRVKEEQYLGHEGPGGAVSTSQPVELPPPSSLALLNSVVYGPERTSAAMLSQQVASVKWPNSVMAPGRGPERGGGGGVSDSSWQQQPGQPPPHSTWNCHSLSLYSATKGSPHPGVGVPTYYNHPEALKREKAGGPQLDRYVRPMMPQKVQLEVGRPQAPLNSFHAAKKPPNQSLPLQPFQLAFGHQVNRQVFRQGPPPPNPVAAFPPQKQQQQQQPQQQQQQQQAALPQMPLFENFYSMPQQPSQQPQDFGLQPAGPLGQSHLAHHSMAPYPFPPNPDMNPELRKALLQDSAPQPALPQVQIPFPRRSRRLSKEGILPPSALDGAGTQPGQEATGNLFLHHWPLQQPPPGSLGQPHPEALGFPLELRESQLLPDGERLAPNGREREAPAMGSEEGMRAVSTGDCGQVLRGGVIQSTRRRRRASQEANLLTLAQKAVELASLQNAKDGSGSEEKRKSVLASTTKCGVEFSEPSLATKRAREDSGMVPLIIPVSVPVRTVDPTEAAQAGGLDEDGKGPEQNPAEHKPSVIVTRRRSTRIPGTDAQAQAEDMNVKLEGEPSVRKPKQRPRPEPLIIPTKAGTFIAPPVYSNITPYQSHLRSPVRLADHPSERSFELPPYTPPPILSPVREGSGLYFNAIISTSTIPAPPPITPKSAHRTLLRTNSAEVTPPVLSVMGEATPVSIEPRINVGSRFQAEIPLMRDRALAAADPHKADLVWQPWEDLESSREKQRQVEDLLTAACSSIFPGAGTNQELALHCLHESRGDILETLNKLLLKKPLRPHNHPLATYHYTGSDQWKMAERKLFNKGIAIYKKDFFLVQKLIQTKTVAQCVEFYYTYKKQVKIGRNGTLTFGDVDTSDEKSAQEEVEVDIKTSQKFPRVPLPRRESPSEERLEPKREVKEPRKEGEEEVPEIQEKEEQEEGRERSRRAAAVKATQTLQANESASDILILRSHESNAPGSAGGQASEKPREGTGKSRRALPFSEKKKKTETFSKTQNQENTFPCKKCGR
Take B1: the binding entry is listed as “binds”.
